For at least one compound, name, drawing or mass did not settle the structure.
Experiments:
[1] = test system: nominal immunogen (AgX); test: Antibody titers in Balb/c mice against a nominal immunogen (AgX) in the presence or absence of PGE2; format: in vivo; details: Table 2, 25 ug AgX, titered Day 27 following 2 i.p. injections, geometric means
Protocol: (§1) To generate antibody against ovalbumin (OVA), Balb/c mice were immunized with 25 ug of OVA emulsified in adjuvant. To test the effect of PGE2, the mice were injected with 1 nmol PGE2 intraperitoneally (i.p.) 3 hours prior to immunization, and again at 24 and 48 hours post immunization. For the control group, the mice were injected (i.p.) with an equal volume of PBS 3 hours prior to immunization. The mice were boosted with 25 ug OVA on Day 14 (i.p.) and Day 28 (subcutaneously). Anti-OVA titers were determined on Day 27 and Day 35.
(§2) To assess the effect of PGE2 on generating antibodies against difficult targets, a nominal immunogen (AgX) known to be difficult to raise an antibody response was used. Briefly, Balb/c mice were immunized following the same schedule outlined above with either 25 ug of OVA or AgX and titered on Day 27 following 2 i.p. injections. […] Therefore, PGE2 enhances immune responses in Balb/c mice and may be used to shorten immunization time lines.
Given the difficult nature of this immunogen to generate antibodies against, this is a significant increase. Therefore, PGE2 can be used in Balb/c mice to enhance immune responses not only to strong immunogens, but also to difficult/nominal immunogens.

[2] = test system: ovalbumin (OVA); test: Anti-OVA antibody titers in Balb/c mice immunized with OVA in the presence or absence of PGE2; format: in vivo
Protocol: as §1, §2

For `CCCCC[C@H](O)/C=C/[C@H]1[C@H](O)CC(=O)[C@@H]1C/C=C\CCCC(=O)O` [PGE2, Prostaglandin E2], the “Day 27 Avg. Titer (anti-AgX, nominal immunogen)” value [1] was ~1:25,600, the “Day 27 Avg. Titer (anti-OVA)” value ([2]; Table 1, 25 ug OVA, 1 nmol PGE2 i.p. 3 h prior and 24 and 48 h post immunization, Day 27, geometric means) was ~1:128,000 and the “Day 35 Avg. Titer (anti-OVA)” value ([2]; Table 1, 25 ug OVA, boosts Day 14 (i.p.) and Day 28 (s.c.), 1 nmol PGE2 i.p., Day 35, geometric means) was ~1:809,500. The “Day 27 Avg. Titer (anti-OVA, strong immunogen)” value ([2]; Table 2, 25 ug OVA, titered Day 27 following 2 i.p. injections, geometric means) was ~1:145,000.

Reference: patent publication US20100278875A1, “PROSTAGLANDIN E2 (PGE2) AS AN ADJUVANT IN MONOCLONAL ANTIBODY GENERATION” (priority 2006, published 2010)
